Measurements reported in PubChem BioAssay AID504786 (Drosophila RNAi Screening Center, 2011).
Test: 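Knock-downs reducing HIF reporter induction by the iron chelator DFO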 (primary screen). System: Drosophila S2 cells with a stable HIF luciferase reporter. Reagents: long dsRNA against Drosophila genes, about 0.2 µg dsRNA per well of a 384-well plate. Duration: three days of knock-down, then 20 h of DFO before reading. Treatment: desferrioxamine (DFO) at 100 µM, an iron chelator that mimics hypoxia, for 20 h. Measurement: 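HIF reporter luminescence in cells given 100 µM DFO for 20 h, using the mouse ldh-a hypoxia-response element, scored as per-plate z-scores; higher means greater loss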. Reading the numbers: z-score: higher = stronger loss of HIF reporter signal.
The screen tested about 21,000 reagents; this is an unselected part of those that have a named target and a result. 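Primary screen; positive scores mean lost reporter signal, so the sign may be inverted from the usual convention.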 The numbers tell different reagents against one gene apart.

gene knocked down	dsRNA no.	z-score, replicate 1	z-score, replicate 2	z-score, replicate 3	z-score, replicate 4
CG13101	1	-0.3	-0.5		
Mhcl (Myosin heavy chain-like)	1	1.1	0.3		
Mhcl (Myosin heavy chain-like)	2	-0.3	-0.5		
Mhcl (Myosin heavy chain-like)	3	-0.2	-0.5		
hoe1 (hoepel1)	1	-0.3	-0.2		
hoe1 (hoepel1)	2	-0.4	-0.1		
hoe1 (hoepel1)	3	-0.5	-0.8		
CG12426	1	-0.4	-0.1		
Uggt (UDP-glucose-glycoprotein glucosyltransferase)	1	-0.4	-0.7		
Drat (Death resistor Adh domain containing target)	1	-0.3	0		
CG33337	1	-0.2	-0.7	-0.1	-0.4
CG18545	1	-0.4	-0.7		
Gr97a (Gustatory receptor 97a)	1	0.1	1		
CG15093	1	-0.2	-0.4		
CG31198	1	-0.1	-0.4		
CG5768	1	-0.3	-0.6		
CG30485	1	-0.4	-0.3		
CG5103	1	-0.3	-0.3		
twi (twist)	1	0.4	0.3		
CG8066	1	0.2	-0.3		
kappaTry	1	-0.2	-0.4		
NimB1 (Nimrod B1)	1	-0.3	-0.1		

Targets above whose gene name begins with H or h:
gene knocked down	dsRNA no.	z-score, replicate 1	z-score, replicate 2	z-score, replicate 3	z-score, replicate 4
hoe1 (hoepel1)	1	-0.3	-0.2		
hoe1 (hoepel1)	2	-0.4	-0.1		
hoe1 (hoepel1)	3	-0.5	-0.8		

Additional reagents:
gene knocked down	dsRNA no.	z-score, replicate 1	z-score, replicate 2	z-score, replicate 3	z-score, replicate 4
CG9692	1	-0.2	1.4		
Wnk (Wnk kinase)	1	1.8	1.9		
cnk (connector enhancer of ksr)	1	0.1	0.3		
CG14442	1	-0.3	-0.6		
CG15283	1	-0.1	0		
uex (unextended)	1	-0.6	-0.2		
uex (unextended)	2	-0.4	-0.2		
Cdk9 (Cyclin-dependent kinase 9)	1	2.1	1.8		
cN-IIIB (cytosolic 5'-nucleotidase IIIB)	1	-0.2	-0.2		
CG12853	1	-0.6	-0.4		
CG12003	1	-0.4	-0.3		
hfp (half pint)	1	1.4	3.4		
hfp (half pint)	2	-0.2	1		
mRpS31 (mitochondrial ribosomal protein S31)	1	0.8	0.5		
RpL10Ab (Ribosomal protein L10Ab)	1	6.5	7.1		
VhaPPA1-1 (Vacuolar H[+] ATPase PPA1 subunit 1)	1	-0.4	-0.4		
foxo (forkhead box, sub-group O)	1	3.2	2		
foxo (forkhead box, sub-group O)	2	-0.4	-0.6		
fiz (fezzik)	1	-0.1	-0.7		
fng (fringe)	1	-0.2	-1.3	-0.8	-0.2
fng (fringe)	2	-0.3	-0.3		
Wdr59 (WD repeat domain 59)	1	-0.4	-0.6		
CG13376	1	-0.4	-0.5		
Mekk1	1	0	-0.2		
Mekk1	2	-1.1	-0.7		
Br140 (Bromodomain-containing protein, 140kD)	1	1.2	0.1		
CycY (Cyclin Y)	1	-0.4	-0.2		
Pez	1	-0.3	-0.8		
CG17601	1	0.1	-0.3		
Pdk1 (Phosphoinositide-dependent kinase 1)	1	3	1.5		
CG7328	1	-0.3	0		
CG3226	1	-0.2	-0.9		
CG13955	1	-0.1	-0.2		
CG18476	1	-0.2	-0.3		
